Test results from PubChem BioAssay AID2685 (National Center for Advancing Translational Sciences (NCATS), 2010).
The list shows a part of the results. The main result of the screen is listed elsewhere. These columns were measured beside it and carry no call. Most of these compounds were active or inconclusive in the main read-out, so they are no random draw. The note in brackets gives the kind of curve behind each potency; many fits are weak.

Test: qHTS Assay for Lipid Storage Modulators in Drosophila S3 Cells;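 on cell number change: cells counted by Cell Tracker Red CMTPX staining in the red channel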
Details: BODIPY lipid droplet fluorescence, 18-24 h; for cell number change: measured here: cell count max response, cells fed with added oleic acid
Summary of the method: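 Laser-scanning cytometry quantifies lipid droplet accumulation (500–530 nm total intensity; droplet/cell object ratio) in oleic acid-fed (400 uM added) Drosophila S3 cells treated with a concentration series. 20 uM Triacsin C defined 100% inhibition.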

[1] = measured here: cell number channel AC50, cells fed with added oleic acid
[2] = measured here: lipid fluorescence (Fed channel) AC50, cells fed with added oleic acid

Row | SMILES | cell number change | AC50 [1] | AC50 [2]
1 | O=C(Nc1ccccc1)c1ccc(COc2ccccc2)cc1 | 1.53% | 5.17 µM [falling, partial curve, poor fit] | 6.51 µM [falling, single point]
2 | Cc1ccc(C(=O)N2CCn3c(C)ccc3C2C)cc1 (stereo unspecified) |  | 4.11 µM [rising, single point] | 
3 | COc1ccc(NC(=O)C2CCCN(S(=O)(=O)c3ccc4[nH]c(=O)ccc4c3)C2)cc1 (stereo unspecified) | 30.8% | 8.2 µM [rising, partial curve, poor fit] | 
4 | CCOc1ccc(NC(=O)CSc2nnc(C34CC5CC(CC(C5)C3)C4)n2C)cc1 | 27.3% |  | 29.1 µM [rising, single point]
5 | CCN(CC)CC(=O)Nc1ccccc1SCC(=O)Nc1ccsc1C(=O)OC | 13.6% |  | 6.51 µM [rising, single point]
6 | Cc1cc(C)n2c(SCc3ccccc3Cl)nnc2n1 | 93.6% |  | 16.4 µM [rising, partial curve]
7 | Cc1csc2nc(O)c(C(=O)NC3CCCCC3)c(=O)n12 | -25.5% |  | 18.4 µM [falling, single point]
8 | O=C(C1=C[C@H](c2csc3ccccc23)C[C@H](OCCCCO)O1)N1CCN(Cc2ccc3c(c2)OCO3)CC1 | -32.6% | 29.1 µM [falling, single point] | 
9 | CS(=O)(=O)c1ccc([C@@H](O)[C@@H](CF)NC(=O)C(Cl)Cl)cc1 | -6.48% |  | 0.366 µM [falling, full curve, poor fit]
10 | COc1cccc(C(=O)NNC(=O)c2ccccc2)c1 | -6.59% |  | 
11 | CCCC[C@]12Cc3ccccc3[C@H](O1)C1=C(O2)C(=O)c2ccccc2C1=O | 10.2% |  | 5.31 µM [rising, single point]
12 | CC(C)CNC(=O)COC(=O)c1ccc(F)cc1Cl | 0.947% |  | 
13 | COCCCn1c(SCC(=O)N(C)C)nnc1-c1ccccc1 | 1.35% |  | 0.82 µM [falling, single point]
14 | Cc1ccc2nsnc2c1NC(=O)c1ccc(-c2cc(Cl)ccc2Cl)o1 | -7.13% | 3.66 µM [falling, partial curve] | 5.17 µM [falling, full curve, poor fit]
15 | N=c1ccccn1CC(O)COc1ccccc1 (stereo unspecified) | -8.66% |  | 3.66 µM [falling, full curve, poor fit]
16 | N#Cc1ccc(OCC(=O)Nc2ccncc2)cc1 | -6.31% |  | 0.58 µM [falling, single point]
17 | COc1ccc(CCNC(=O)CSc2nnc3ccccn23)cc1 |  | 0.58 µM [rising, single point] | 
18 | CC(=O)NNC(=O)CSc1nnc(-c2ccccc2)c(-c2ccccc2)n1 | 3.04% |  | 
19 | CCOc1ccc(NC(=O)COC(=O)c2ccc3c(c2)C(=O)N(CCc2ccccc2)C3=O)cc1 |  |  | 6.51 µM [rising, single point]
20 | CCN1CCN(C(=S)Nc2ccc3nc(N4CCN(CC)CC4)cc(C)c3c2)CC1 | -42.2% | 3.66 µM [falling, full curve] | 29.1 µM [falling, single point]

Three entries from above, with tabs.
Row	SMILES	cell number change	AC50 [1]	AC50 [2]
17	COc1ccc(CCNC(=O)CSc2nnc3ccccn23)cc1		0.58 µM [rising, single point]	
18	CC(=O)NNC(=O)CSc1nnc(-c2ccccc2)c(-c2ccccc2)n1	3.04%		
19	CCOc1ccc(NC(=O)COC(=O)c2ccc3c(c2)C(=O)N(CCc2ccccc2)C3=O)cc1			6.51 µM [rising, single point]

Next structures follow.

Row | SMILES | cell number change | AC50 [1] | AC50 [2]
21 | COc1ccc(Cc2c(Cl)ncnc2Cl)cc1 |  |  | 14.6 µM [falling, partial curve]
22 | CSc1ccccc1OCc1cc(C(=O)N2CCN(Cc3nccn3C)CC2)no1 | 21.6% |  | 29.1 µM [falling, single point]
23 | CCOC(=O)c1cc2ccccc2n1CC(=O)c1ccccc1 | 66% | 29.1 µM [rising, single point] | 
24 | O=C(CN(C(=O)c1nsc(Cl)c1Cl)c1ccc(F)cc1)NC1CCCC1 | 6.35% |  | 14.6 µM [rising, partial curve]
25 | COc1ccc(CCC(=O)Nc2nc3ccccc3[nH]2)cc1OC | 96.1% | 1.3 µM [rising, full curve] | 2.31 µM [rising, full curve]
26 | COc1ccc(NC(=O)c2cc(-c3ccccc3Cl)on2)cc1 | 35.5% | 18.4 µM [rising, partial curve, poor fit] | 
27 | CC(C)C(=O)Nc1cccc(C(=O)Nc2cc([N+](=O)[O-])ccc2F)c1 |  |  | 0.116 µM [rising, full curve, poor fit]
28 | CCc1c(C)sc(NC(=O)c2ccco2)c1C#N | -8.29% |  | 6.51 µM [rising, single point]
29 | COc1ccc(CCC(=O)N2CCN(S(=O)(=O)c3cccc(C(F)(F)F)c3)CC2)cc1OC | 6.97% |  | 4.61 µM [rising, full curve, poor fit]
30 | O=C(CCC1CCCC1)N=C1SC2CS(=O)(=O)CC2N1Cc1ccccc1 (stereo unspecified) | 9.92% |  | 29.1 µM [falling, single point]
31 | O=C(NCC1CCCO1)c1cccc(NC(=O)c2ccccc2)c1 (stereo unspecified) | -16.1% |  | 0.00461 µM [falling, full curve, poor fit]
32 | CSc1cccc(NC(=O)CN(Cc2ccc(Cl)cc2)S(C)(=O)=O)c1 | 29.4% |  | 
33 | Cc1csc(SCC(=O)Nc2cc(S(=O)(=O)N3CCOCC3)ccc2N2CCOCC2)n1 | 8.95% |  | 29.1 µM [falling, single point]
34 | COc1cc(NC(=S)NCCCN2CCOCC2)cc(OC)c1OC | -45.4% | 0.92 µM [falling, full curve] | 
35 | COc1cc(/C=N/NC(=O)CN2CCOCC2)ccc1OCc1ccccc1 | 7.42% | 0.82 µM [falling, full curve, poor fit] | 
36 | COc1cccc(NC(=O)Cc2nnc(SCCOc3ccccc3)n2C)c1 | 9.53% |  | 
37 | Cc1cc(C)nc(NS(=O)(=O)c2ccc(NC(=O)c3snnc3C)cc2)n1 | 8.85% |  | 
38 | CC(=O)Nc1sc2c(c1C(c1ccccn1)N1CCCC1)CCCC2 (stereo unspecified) | -24.9% |  | 0.103 µM [falling, full curve, poor fit]
39 | CCC1CCC2(CC1)NC(=O)N(CC(=O)Nc1ccc(OC)cc1)C2=O (stereo unspecified) | -1.41% |  | 0.00461 µM [rising, full curve, poor fit]
40 | Cc1cc(C)c(S(=O)(=O)N2CCCOC2CNC(=O)C(=O)NCCc2c[nH]c3ccccc23)c(C)c1 (stereo unspecified) | -70.6% | 20.6 µM [falling, partial curve] | 8.2 µM [falling, partial curve]

Row | SMILES | cell number change | AC50 [1] | AC50 [2]
41 | O=[N+]([O-])c1ccc(OCC(O)CN(C2CCCCC2)C2CCCCC2)cc1 (stereo unspecified) | -11.7% |  | 0.82 µM [falling, partial curve, poor fit]
42 | C/C(CC(=O)Nc1ccc(F)cc1F)=N\NC(=O)C(=O)N1CCCCC1 | -0.952% |  | 29.1 µM [rising, single point]
43 | COC(=O)COn1c(SCC(=O)OC)nc2ccccc2c1=O | -20.8% | 4.11 µM [falling, full curve, poor fit] | 4.11 µM [falling, full curve, poor fit]
44 | Cc1cc(C)n2ncc(C(=O)NCc3ccc(Cl)cc3)c2n1 | 68.1% | 25.9 µM [rising, partial curve] | 0.259 µM [rising, full curve]
45 | CC(=O)Nc1ccc(NC(=O)COc2ccc(S(=O)(=O)N3CCCC3)cc2C)cc1 | 2.52% |  | 0.291 µM [rising, partial curve, poor fit]
46 | COc1cccc(NC(=O)CN(C)C(=O)COc2ccccc2Cc2ccccc2)c1 | -4.69% |  | 25.9 µM [falling, single point]
47 | Cc1ccc(C(=O)N/N=C\c2cc3c(cc2Br)OCO3)s1 | 1.43% | 1.16 µM [rising, partial curve] | 0.116 µM [rising, full curve]
48 | C(=N\N(c1ccccc1)c1ccccc1)/c1ccc(N2CCOCC2)s1 |  | 6.51 µM [rising, single point] | 18.4 µM [falling, partial curve]
49 | COc1ccc(Nc2nc(C)cc(C)c2C#N)cc1OC | 25.3% |  | 2.59 µM [rising, single point]
50 | COc1ccc(N2CCN(C(=O)CN(c3ccccc3)S(=O)(=O)c3ccc(OC)cc3)CC2)cc1 | 24.7% | 0.651 µM [rising, single point] | 29.1 µM [rising, single point]
51 | Cc1ncn(-c2ccc(C(=O)Oc3ccccc3)cn2)n1 | -22.3% |  | 
52 | CC(NC(=O)CCc1ccccc1)c1ccc2c(c1)OCO2 (stereo unspecified) | -14.7% |  | 
53 | O=c1c2ccccc2cnn1Cc1ccc(Cl)c(Cl)c1 | -9.52% |  | 3.66 µM [falling, single point]
54 | O=C1NC(Nc2nccs2)(C(F)(F)F)C(=O)N1CCc1ccccc1 (stereo unspecified) | 78% | 8.2 µM [rising, partial curve] | 9.2 µM [rising, partial curve]
55 | CCOC(=O)c1c(NC(=O)CSc2nnc(C)o2)sc(C)c1C | 4.88% |  | 0.0092 µM [rising, full curve, poor fit]
56 | CCCN1CCC(=O)N(CCN=[N+]=[N-])CC1 | 18.4% |  | 4.11 µM [rising, full curve]
57 | C=CCN1CC(C(=O)N2CCC(Cc3ccc(Cl)cc3)(C(=O)OCC)CC2)CC1=O (stereo unspecified) | 5.73% |  | 
58 | CCOC(=O)N1CCC(NC(=O)C(Cc2ccccc2)NC(=O)c2ccco2)CC1 (stereo unspecified) | 54.4% |  | 6.51 µM [falling, single point]
59 | COc1cc(OC)cc(C2C(C#N)=C(N)Oc3n[nH]c(-c4cccnc4)c32)c1 (stereo unspecified) | -22.7% |  | 8.2 µM [rising, partial curve]
60 | O=C(CN1CCSC1=O)N1CCN(S(=O)(=O)c2ccc(Cl)cc2)CC1 | -11.4% |  | 10.3 µM [rising, partial curve]
